Measurements from patent US8481711B2, “Neurite outgrowth agent” (Hidenori Kamanishi, priority 2010, dated 2013).

Test system: fetal rat linear nerve cells (dopaminergic cells)
Assay: Gene expression analysis by microarray in fetal rat nerve cells
Assay type: cell-based
Conditions: 10 μg/mL
Procedure: As nerve cells, fetal rat linear nerve cells (dopaminergic cells) purchased from LONZA (U.S.A.) were used. The cells were adjusted to a concentration of 1.0×10^5 cells/mL, and were then cultured at 37° C. in the presence of 5% CO2. As a culture solution, a serum-free medium for primary nerve cell culture (manufactured by LONZA) was used, and it was prepared according to the protocols. A culture dish, the surface of which had been treated with polylysine, was used. The NAD analogue of the present invention was adjusted to a final concentration of 10 μg/mL in the culture solution. The NAD analogue of the present invention was added simultaneously at the start of cell culture. 24 hours later, RNA was extracted from the cells using TRIZOL (registered trademark) (Invitrogen) according to an ordinary method, and the extracted RNA was used as a sample on Day 1. […]
With regard to the RNA sample on Day 1 and the RNA sample on Day 2, each of which was extracted from the fetal rat linear nerve cells after the culture, gene expression in the nerve cells was analyzed by Cell Innovator Inc. (Fukuoka, Japan) on a commission basis. […]
Giving attention to the sample on Day 2 whose altered expression was larger than that of the sample on Day 1, genes whose expression was altered were extracted, and were then analyzed by IPA (Ingenuity Pathways Analysis).

Question: What does the source list for “3-(aminocarbonyl)-1-[5-O-[[1-(6-amino-9H-purin-9-yl)-1-deoxy-β-D-ribofuranose-5-O-yl]phosphonyloxy(oxylato)phosphinyl]-β-L-ribofuranosyl]pyridinium [NAD analogue of the present invention]”?
Answer: alteration of gene expression overall (microarray) (RNA samples on Day 1 and Day 2, Rat Genome 230 2.0 Array): small; genes with altered expression (IPA analysis) (sample on Day 2 (48 hours)): genes regarding cytoskeleton or nerve cells underwent altered expression
